Measurements published in PubChem BioAssay AID485353 (National Center for Advancing Translational Sciences (NCATS), 2010).
Out of some 330,000 compounds screened, about 610 (0.18%) were called active. This list was built around the results that the source calls inconclusive (neither active nor inactive); the mix of calls is not that of the screen. Calls follow the shape of the full dose curve. Potencies beside an inconclusive call are fits to weak or partial responses and may not hold up.

Experiment: qHTS of Yeast-based Assay for SARS-CoV PLP; also: nearly all actives have a fitted effect of over 55% in size; as to activity, positive = growth rescue: 0% is about no effect
Conditions: S. cerevisiae expressing SARS-CoV PLpro; Potency: growth rescue; activity, positive = growth rescue: at 32.9 µM (top of the series)
Potency is read from the fitted curve at half-maximal effect.

Row | Structure (SMILES) | Potency | activity, positive = growth rescue
1 | CCCCCCN=CC1=C(O)CC(C)(C)CC1=O | inconclusive: 4.47 µM [activator, single point] | 
2 | Nc1nc(SCc2ccccc2Cl)nc2nc3c(cc12)CCCC3 | inconclusive: 14.1 µM [activator, single point] | 
3 | C=CCSc1nnc(CNS(=O)(=O)c2ccc(C)cc2)n1C | inconclusive: 20 µM [activator, single point] | 
4 | CCCCNC(=O)C(CC)(ONc1ccccc1C(F)(F)F)c1ccccc1OC (stereo not drawn) |  | inactive: -14%
5 | CCN(CC)S(=O)(=O)c1cccc(NC(=O)/C=C/c2cccc([N+](=O)[O-])c2)c1 | active: 20 µM | 
6 | COc1ccc(F)c(CN2CCCC(CNS(=O)(=O)c3cccc4cccnc34)C2)c1 (stereo not drawn) | inconclusive: 20 µM [activator, single point] | 
7 | CCc1nn(C)c2c(=O)c(=O)c2n(C)[nH]1 |  | inactive: 1.54%
8 | CC(C)(C)C(=O)Nc1nc2c(s1)COc1ccccc1-2 | inconclusive: 3.98 µM [activator, single point] | 
9 | CCOC(=O)C(Cc1ccccc1)C(=O)Nc1cccc(C)c1 (stereo not drawn) | active: 22.4 µM | 
10 | COc1ccccc1CNC(=O)c1ccc(CS(=O)(=O)c2ccccc2)o1 | inconclusive: 3.16 µM [activator, partial curve] | 
11 | O=C(NCC(=O)N1CCN(Cc2ccccc2)CC1)c1ccc(Br)o1 | inconclusive: 2.51 µM [activator, single point] | 
12 | CC(C)C(NCC(=O)Nc1ccccc1C(=O)NC1CC1)c1ccccc1 (stereo not drawn) | inconclusive: 2.82 µM [activator, full curve] | 
13 | O=C(c1ccc(OC2CCN(Cc3cccc(OCCO)c3)CC2)cc1)N1CCCC1 |  | inactive: 0.803%
14 | CN(C(=O)c1ccccc1-c1ncc[nH]1)C1CCCN(Cc2ccccc2F)C1 (stereo not drawn) | active: 15.8 µM | 
15 | Cc1cc(/C=C2\C(=N)N3N=C(CC(=O)N4CCOCC4)SC3=NC2=O)c(C)n1-c1ccccc1 | inconclusive: 20 µM [activator, single point] | 
16 | CC(C)(C)NCC(O)COc1ccccc1C(=O)CCc1ccccc1 (stereo not drawn) |  | inactive: 4.04%
17 | COc1ccc(NC(=O)c2cccs2)c([N+](=O)[O-])c1 | inconclusive: 12.6 µM [activator, single point] | 
18 | Cc1cc(C)c(NC(=O)COc2ccccc2C(=O)Nc2ccc3c(c2)oc2ccccc23)c(C)c1 | inconclusive: 2.82 µM [activator, partial curve] | 
19 | CCOC(=O)CSc1nc(NC#N)nc(N(CC)CC)n1 | inconclusive: 20 µM [activator, single point] | 
20 | S=C(NCc1cccs1)Nc1cccc(Cl)c1Cl | inconclusive: 14.1 µM [activator, partial curve] | 
21 | O=C(c1ccc2c(=O)n(Cc3ccc(Cl)cc3)c(=S)[nH]c2c1)N1CCOCC1 | inconclusive: 0.891 µM [activator, full curve, poor fit] | 
22 | O=[N+]([O-])c1cc(C2Nc3cccc4cccc(c34)N2)ccc1Cl |  | inactive: -1.2%
23 | COc1ccc(-c2[nH]ncc2-c2cnc(C)s2)c(O)c1 | inconclusive: 4.47 µM [activator, single point] | 

Row | Structure (SMILES) | Potency | activity, positive = growth rescue
24 | CCOC(=O)C1=C(N)OC2=C(C(=O)CC(C)C2)C1c1cccnc1 (stereo not drawn) | inconclusive: 20 µM [activator, single point] | 
25 | O=C(O)c1ccc(N=NN2CCCCC2)cc1 | inconclusive: 20 µM [activator, single point] | 
26 | Cc1nc(SCC#N)c2c(C)c(C)sc2n1 | inconclusive: 20 µM [activator, single point] | 
27 | c1ccc(-c2cc(N3CCOCC3)nc(-c3ccccc3)n2)cc1 | inconclusive: 20 µM [activator, single point] | 
28 | Cc1ccc([N+](=O)[O-])cc1NC(=S)NC(=O)c1cccs1 |  | inactive: -16.2%
29 | CCN(C(=O)C1CCN(c2nc(-c3ccc(OC)cc3)no2)CC1)c1ccccc1 | inconclusive: 20 µM [activator, single point] | 
30 | COCC(C)n1c(C)cc(C(=O)COc2ccc(S(=O)(=O)N3CCOCC3)cc2Cl)c1C (stereo not drawn) |  | inactive: 0.242%
31 | COc1cc2ccccc2cc1C(=O)NNC(=O)c1ccccc1O | inconclusive: 17.8 µM [activator, single point] | 
32 | CCOc1ccc(N(CC(=O)Nc2ccc(F)c(F)c2)S(=O)(=O)c2c(C)noc2C)cc1 | inconclusive: 11.2 µM [activator, single point] | 
33 | Cc1ccc2cc(CCNC(=O)c3ccc(S(=O)(=O)N4CCOCC4)cc3)c(=O)[nH]c2c1 | inconclusive: 2.51 µM [activator, full curve] | 
34 | COc1cccc(CNC(=O)CN2C(=O)COc3ccc(S(=O)(=O)N4CCCC4)cc32)c1 | inconclusive: 2.82 µM [activator, single point] | 
35 | Cc1cc(C)cc(NC(=O)CSc2ccc(-c3ccccn3)nn2)c1 | inconclusive: 0.398 µM [activator, full curve, poor fit] | 
36 | O=C(/C=C\c1ccccc1OC(=O)c1ccccc1F)c1cc2ccccc2o1 |  | inactive: -13.4%
37 | CC(=O)N1CCCc2cc(S(=O)(=O)N3CCCC(C(=O)NCc4ccccc4)C3)ccc21 (stereo not drawn) | inconclusive: 0.447 µM [activator, full curve, poor fit] | 
38 | COc1cccc(-c2noc(CCCC(=O)Nc3ccc(C(N)=O)cc3)n2)c1 |  | inactive: 1.55%
39 | CCN(CC)S(=O)(=O)c1cccc(C(=O)Oc2cccc(NC(=O)c3cccs3)c2)c1 | inconclusive: 6.31 µM [activator, partial curve] | 
40 | CCn1c(=O)c(=O)n(CC)c2cc(S(=O)(=O)Nc3cc(C)ccc3C)ccc21 | inconclusive: 3.16 µM [activator, single point] | 
41 | O=C(c1ccc(N2CCCC2)c([N+](=O)[O-])c1)N1CCN(S(=O)(=O)c2ccc(Cl)cc2)CC1 |  | inactive: -0.987%
42 | COc1cc(OC)c(NC(=O)CC(C)=O)cc1Cl | inconclusive: 11.2 µM [activator, partial curve] | 
43 | Cc1cc(C)n2nc(C(=O)Oc3ccc4c(c3)OCO4)nc2n1 | inconclusive: 20 µM [activator, single point] | 
44 | CCc1ccc(C2C(C#N)=C(N)N(N(C)C)C3=C2C(=O)CCC3)s1 (stereo not drawn) | inconclusive: 12.6 µM [activator, single point] | 
45 | N#Cc1ccc(-c2cccnc2)nc1SCc1ccc(Cl)c(Cl)c1 | inconclusive: 11.2 µM [activator, single point] | 
46 | CCC1(c2ccc(F)cc2)NC(=O)N(CC(=O)N2CCc3ccccc32)C1=O (stereo not drawn) |  | inactive: 7.92%

Row | Structure (SMILES) | Potency | activity, positive = growth rescue
47 | COc1cc(OC)cc(-c2nc3ccccc3c(=O)n2OC(=O)c2ccccc2C)c1 | inconclusive: 20 µM [activator, single point] | 
48 | CC(C)Cn1c(CN(C)Cc2ccccc2)nc2c1c(=O)n(C)c(=O)n2C |  | inactive: -1.33%
49 | Cc1cc(C)cc(NC(N)=S)c1 | inconclusive: 22.4 µM [activator, single point] | 
50 | C=CCn1c(COc2cccc(C)c2C)nnc1SCC(=O)N1CCN(c2ccccc2)CC1 | inconclusive: 15.8 µM [activator, partial curve] | 
51 | N#C/C(=C\C=C\c1ccccc1[N+](=O)[O-])C(=O)NC1CCCCC1 | inconclusive: 3.98 µM [activator, single point] | 
52 | Cc1ccc(/C(O)=C2/C(=O)C(=O)N(Cc3cccnc3)C2c2ccccn2)cc1 (stereo not drawn) |  | inactive: -3.48%
53 | O=C(CCC(=O)OCc1cccc(C(=O)Oc2ccccc2)c1)Nc1cccc2ccccc12 | inconclusive: 3.55 µM [activator, single point] | 
54 | COc1cc(C2C(C(=O)c3cccs3)=C(O)C(=O)N2CCN2CCOCC2)cc(OC)c1OC (stereo not drawn) | inconclusive: 0.631 µM [activator, full curve] | 
55 | COc1ccc(OC)c(NC(=O)CCC(=O)Oc2ccc(C)cc2)c1 | inconclusive: 20 µM [activator, single point] | 
56 | O=C(c1ccc(Cn2cc(Br)cn2)o1)n1cccn1 | inconclusive: 3.98 µM [activator, single point] | 
57 | CS(=O)(=O)N(CC(=O)Nc1ccc(S(=O)(=O)N2CCCC2)cc1)c1ccccc1F | inconclusive: 5.62 µM [activator, partial curve] | 
58 | Cc1ccc(C(=O)Nc2ccc(C(=O)N/N=C/c3ccc(C)o3)cc2)cc1 |  | inactive: 1.5%
59 | Cc1cc(OCC[N+]2(C)CCCCC2)nc2ccccc12 | inconclusive: 4.47 µM [activator, partial curve] | 
60 | CCOc1ccc(S(=O)(=O)N2CCCC(C(=O)N3CCN(c4ccccc4)CC3)C2)cc1 (stereo not drawn) | inconclusive: 4.47 µM [activator, single point] | 
61 | CN(C)c1ccc(C(=O)N/N=C/c2cc(Br)cc(Br)c2O)cc1 | inconclusive: 1.78 µM [activator, full curve] | 
62 | C#CCNC(=O)C1=C[C@H](c2coc3ccccc3c2=O)C[C@H](OCCCCO)O1 |  | inactive: 0.889%
63 | NC(=S)NN=C1C2CC3CC(C2)CC1C3 | inconclusive: 14.1 µM [activator, single point] | 
64 | O=C(NC(=S)Nc1ccc(N2CCCCC2)cc1)c1ccc2c(c1)OCCO2 |  | inactive: 12.1%
65 | CC(C)CC(=O)N1CCN(Cc2ccc(Br)cc2)CC1 | inconclusive: 22.4 µM [activator, single point] | 
66 | CCOC(=O)c1c(NC(=S)NC)sc2c1CC(C)(C)SC2 |  | inactive: 15.8%
67 | CNCC(=O)Nc1c(C)n[nH]c1C | inconclusive: 14.1 µM [activator, partial curve] | 
68 | CCN(Cc1ccccc1)c1ccc(/C=N/NS(=O)(=O)c2ccc(C)c([N+](=O)[O-])c2)cc1 | inconclusive: 0.355 µM [activator, full curve, poor fit] | 

Twelve entries from above, in CSV form:
Row,Structure (SMILES),Potency,"activity, positive = growth rescue"
1,CCCCCCN=CC1=C(O)CC(C)(C)CC1=O,"inconclusive: 4.47 µM [activator, single point]",
4,CCCCNC(=O)C(CC)(ONc1ccccc1C(F)(F)F)c1ccccc1OC (stereo not drawn),,inactive: -14%
7,CCc1nn(C)c2c(=O)c(=O)c2n(C)[nH]1,,inactive: 1.54%
13,O=C(c1ccc(OC2CCN(Cc3cccc(OCCO)c3)CC2)cc1)N1CCCC1,,inactive: 0.803%
21,O=C(c1ccc2c(=O)n(Cc3ccc(Cl)cc3)c(=S)[nH]c2c1)N1CCOCC1,"inconclusive: 0.891 µM [activator, full curve, poor fit]",
27,c1ccc(-c2cc(N3CCOCC3)nc(-c3ccccc3)n2)cc1,"inconclusive: 20 µM [activator, single point]",
34,COc1cccc(CNC(=O)CN2C(=O)COc3ccc(S(=O)(=O)N4CCCC4)cc32)c1,"inconclusive: 2.82 µM [activator, single point]",
37,CC(=O)N1CCCc2cc(S(=O)(=O)N3CCCC(C(=O)NCc4ccccc4)C3)ccc21 (stereo not drawn),"inconclusive: 0.447 µM [activator, full curve, poor fit]",
43,Cc1cc(C)n2nc(C(=O)Oc3ccc4c(c3)OCO4)nc2n1,"inconclusive: 20 µM [activator, single point]",
51,N#C/C(=C\C=C\c1ccccc1[N+](=O)[O-])C(=O)NC1CCCCC1,"inconclusive: 3.98 µM [activator, single point]",
61,CN(C)c1ccc(C(=O)N/N=C/c2cc(Br)cc(Br)c2O)cc1,"inconclusive: 1.78 µM [activator, full curve]",
67,CNCC(=O)Nc1c(C)n[nH]c1C,"inconclusive: 14.1 µM [activator, partial curve]",
